± gives the standard deviation of the averaged measurements. Over roughly 1,600 compounds, “normalized growth (OD600, IQM-normalized) in LPM” has its median near 1; the lowest 2% begin near 0.014. This is one part of the list.
System: Salmonella enterica serovar Typhimurium SL1344
Experiment: normalized growth (OD600, IQM-normalized) in LPM (fraction of plate interquartile mean); higher = more bacterial growth (less inhibition)
Conditions: LPM pH 5.8; 10 µM; 16 h

| SMILES | normalized growth |
| --- | --- |
| CC(C)c1cccc(C(C)C)c1O | 1.01 ± 0.018 |
| CC(=O)O[C@H]1CC[C@@]2(C)C(=CC[C@@H]3[C@@H]2CC[C@]2(C)C(=O)CC[C@@H]32)C1 | 0.979 ± 0.035 |
| CN1C[C@H](CNC(=O)OCc2ccccc2)C[C@@H]2c3cccc4c3c(cn4C)C[C@H]21 | 0.918 ± 0.026 |
| Oc1ccc2c3c1O[C@H]1[C@@H](O)CC[C@@]4(O)[C@@H](C2)N(CC2CCC2)CC[C@]314 | 0.92 ± 0.12 |
| CC1C=CC=CCCC=CC=CC=CC=CC(OC2OC(C)C(O)C(N)C2O)CC2OC(O)(CC(O)C(O)CCC(O)CC(O)CC(O)CC(=O)OC(C)C(C)C1O)CC(O)C2C(=O)O (stereo not given) | 0.896 ± 0.028 |
| COc1cc2c(c(OC)c1OC)-c1ccc(OC)c(=O)cc1[C@@H](NC(C)=O)CC2 | 1.08 ± 0.062 |
| CC[C@@H](CO)NC(=O)[C@@H]1C=C2c3cccc4c3c(cn4C)C[C@H]2N(C)C1 | 1.07 ± 0.024 |
| C[C@]12CC[C@H](O)CC1=CC[C@@H]1[C@@H]2CC[C@]2(C)C(=O)CC[C@@H]12 | 1.05 ± 0.049 |
| c1ccc2c(c1)OCC(C1=NCCN1)O2 (stereo not given) | 0.876 ± 0.059 |
| CC[N+]1(C)CCCC(OC(=O)C(O)(c2ccccc2)c2ccccc2)C1 (stereo not given) | 1.01 ± 0.041 |
| CC[C@@H](CO)NC(=O)[C@@H]1C=C2c3cccc4[nH]cc(c34)C[C@H]2N(C)C1 | 1.11 ± 0.044 |
| CCC1(C2=NCCN2)Cc2ccccc2O1 (stereo not given) | 0.994 ± 0.11 |
| CCCCOC(=O)c1ccccc1C(=O)OCCCC | 1.363 ± 0.0046 |
| O=C(O)c1nn(Cc2ccc(Cl)cc2Cl)c2ccccc12 | 1.06 ± 0.078 |
| Cc1cc(C(C#N)c2ccc(Cl)cc2)c(Cl)cc1NC(=O)c1cc(I)cc(I)c1O (stereo not given) | 0.801 ± 0.012 |
| COc1ccc2c(c1OC)C(=O)O[C@@H]2[C@H]1c2cc3c(cc2CCN1C)OCO3 | 1.06 ± 0.046 |
| C[C@@H]1C[C@@H]([C@H](O)CC2CC(=O)NC(=O)C2)C(=O)[C@@H](C)C1 | 1.04 ± 0.035 |
| CC[C@@H](C)C(=O)O[C@H]1[C@H](O)[C@H]2[C@@H](CN3C[C@@H](C)CC[C@H]3[C@@]2(C)O)[C@@H]2C[C@]34O[C@]5(O)[C@@H](OC(=O)[C@@](C)(O)CC)CC[C@@]3(C)[C@@H]5[C@@H](OC(C)=O)[C@@H](OC(C)=O)[C@H]4[C@@]21O | 0.96 ± 0.042 |
| O=c1cccc2n1C[C@@H]1CNC[C@H]2C1 | 1.31 ± 0.39 |
| NCC1(CC(=O)O)CCCCC1 | 1.02 ± 0.1 |
| O=C(CCCN1CCC2(CC1)C(=O)NCN2c1ccccc1)c1ccc(F)cc1 | 0.882 ± 0.088 |
| O=[N+]([O-])O[C@H]1CO[C@H]2[C@@H]1OC[C@H]2O[N+](=O)[O-] | 1.02 ± 0.046 |
| CC(O)(CS(=O)(=O)c1ccc(F)cc1)C(=O)Nc1ccc(C#N)c(C(F)(F)F)c1 (stereo not given) | 0.942 ± 0.051 |
| CCOC(=O)c1cncn1[C@H](C)c1ccccc1 | 1.04 ± 0.028 |
| O=[N+]([O-])C(Br)(CO)CO | 0.786 ± 0.02 |

| SMILES | normalized growth |
| --- | --- |
| CN1[C@@H]2C[C@@H](OC(=O)[C@H](CO)c3ccccc3)C[C@H]1[C@@H]1O[C@@H]12 | 1.06 ± 0.019 |
| CN1C[C@H](C(=O)N[C@]2(C)O[C@@]3(O)[C@@H]4CCCN4C(=O)[C@H](Cc4ccccc4)N3C2=O)C=C2c3cccc4[nH]cc(c34)C[C@H]21 | 1.02 ± 0.026 |
| [O-][n+]1ccccc1[S-].[O-][n+]1ccccc1[S-].[Zn+2] | 0.00799 ± 0.00024 |
| CN1CCN(C(=O)O[C@H]2c3nccnc3C(=O)N2c2ccc(Cl)cn2)CC1 | 0.963 ± 0.034 |
| O=C1CC[C@@]2(O)[C@H]3Cc4ccc(O)c5c4[C@@]2(CCN3CC2CC2)[C@H]1O5 | 0.841 ± 0.039 |
| NC(=O)c1cc([N+](=O)[O-])cc([N+](=O)[O-])c1 | 1.13 ± 0.03 |
| CN[C@@H]1[C@@H](O)[C@@H](O[C@@H]2[C@@H](O)[C@H](O[C@H]3O[C@H](CN)CC[C@H]3N)[C@@H](N)C[C@H]2N)OC[C@]1(C)O.CN[C@@H]1[C@@H](O)[C@@H](O[C@@H]2[C@@H](O)[C@H](O[C@H]3O[C@H]([C@@H](C)N)CC[C@H]3N)[C@@H](N)C[C@H]2N)OC[C@]1(C)O.CN[C@@H]1[C@@H](O)[C@@H](O[C@@H]2[C@@H](O)[C@H](O[C@H]3O[C@H]([C@@H](C)NC)CC[C@H]3N)[C@@H](N)C[C@H]2N)OC[C@]1(C)O | 1.01 ± 0.023 |
| NCc1cccnc1 | 1.02 ± 0.037 |
| O=C(O)CCCO | 0.949 ± 0.092 |
| C=C/C=C\CC1=C(C)[C@@H](OC(=O)[C@@H]2[C@@H](/C=C(\C)C(=O)OC)C2(C)C)CC1=O.C=C/C=C\CC1=C(C)[C@@H](OC(=O)[C@@H]2[C@@H](C=C(C)C)C2(C)C)CC1=O | 0.904 ± 0.019 |
| CC(NC(C)(C)C)C(=O)c1cccc(Cl)c1 (stereo not given) | 0.942 ± 0.026 |
| NCC(CC(=O)O)c1ccc(Cl)cc1 (stereo not given) | 0.998 ± 0.032 |
| CCOC(=O)CC(SP(=S)(OC)OC)C(=O)OCC (stereo not given) | 1.24 ± 0.032 |
| CC(N)Cc1ccc(O)cc1 (stereo not given) | 0.973 ± 0.039 |
| C[C@]12CC[C@H]3[C@@H](CCC4=CC(=O)CC[C@@]43C)[C@@H]1CC[C@@H]2O | 1.19 ± 0.11 |
| c1ccc2c(c1)Nc1ccccc1S2 | 0.829 ± 0.039 |
| Cc1ccc(/N=C/N(C)/C=N/c2ccc(C)cc2C)c(C)c1 | 1.033 ± 0.0032 |
| O=c1c2ccccc2[se]n1-c1ccccc1 | 1.01 ± 0.012 |
| NCC(O)c1ccc(O)cc1 (stereo not given) | 0.994 ± 0.038 |
| CC(=O)O[C@H]1C[C@@H]2CC[C@@H]3[C@H](CC[C@@]4(C)[C@H]3C[C@H]([N+]3(C)CCCCC3)[C@@H]4OC(C)=O)[C@@]2(C)C[C@@H]1[N+]1(C)CCCCC1 | 1.01 ± 0.042 |
| COP(=O)(OC)C(O)C(Cl)(Cl)Cl (stereo not given) | 1.01 ± 0.022 |
| C=CCN1CC[C@]23c4c5ccc(O)c4O[C@H]2C(=O)CC[C@@]3(O)[C@H]1C5 | 1.04 ± 0.082 |
| O=c1n(Cl)c(=O)n(Cl)c(=O)n1Cl | 0.903 ± 0.03 |
| C[C@]12CCC(=O)C=C1C=C[C@@H]1[C@@H]2CC[C@@]2(C)[C@H]1CC[C@@]2(O)CCC(=O)O | 1.04 ± 0.025 |
| CC[C@@H](C(=O)[C@@H](C)[C@@H](O)[C@H](C)[C@@H]1O[C@@H]([C@@H](CC)C(=O)O)CC[C@@H]1C)[C@H]1O[C@]2(C=C[C@@H](O)[C@]3(CC[C@@](C)([C@H]4CC[C@](O)(CC)[C@H](C)O4)O3)O2)[C@H](C)C[C@@H]1C | 0.972 ± 0.036 |

Part of the list above in order of heavy-atom count, rising:

| SMILES | normalized growth |
| --- | --- |
| NCC(O)c1ccc(O)cc1 (stereo not given) | 0.994 ± 0.038 |
| O=c1cccc2n1C[C@@H]1CNC[C@H]2C1 | 1.31 ± 0.39 |
| O=C(O)c1nn(Cc2ccc(Cl)cc2Cl)c2ccccc12 | 1.06 ± 0.078 |
| C=CCN1CC[C@]23c4c5ccc(O)c4O[C@H]2C(=O)CC[C@@]3(O)[C@H]1C5 | 1.04 ± 0.082 |
| CC(O)(CS(=O)(=O)c1ccc(F)cc1)C(=O)Nc1ccc(C#N)c(C(F)(F)F)c1 (stereo not given) | 0.942 ± 0.051 |
| CC1C=CC=CCCC=CC=CC=CC=CC(OC2OC(C)C(O)C(N)C2O)CC2OC(O)(CC(O)C(O)CCC(O)CC(O)CC(O)CC(=O)OC(C)C(C)C1O)CC(O)C2C(=O)O (stereo not given) | 0.896 ± 0.028 |

Additional results

| SMILES | normalized growth |
| --- | --- |
| Cc1cccc(C)c1NC(=O)CN1CCCC1=O | 1.01 ± 0.052 |
| S=C=NCc1ccccc1 | 1.05 ± 0.08 |
| COP(=O)(OC)OC=C(Cl)Cl | 0.776 ± 0.065 |
| CNC(=O)Oc1ccc2c(c1)[C@]1(C)CCN(C)[C@@H]1N2C | 0.934 ± 0.048 |
| CN(C)C(=O)Oc1cccc([N+](C)(C)C)c1 | 1.01 ± 0.025 |
| CN1[C@H]2C[C@H](OC(=O)[C@H](CO)c3ccccc3)C[C@@H]1[C@@H](O)C2 | 1.08 ± 0.031 |
| COc1ccc(C(CN(C)C)C2(O)CCCCC2)cc1 (stereo not given) | 0.962 ± 0.039 |
| CN1CCc2cc3c(cc2C1O)OCO3 (stereo not given) | 1.04 ± 0.11 |
| NP(N)(=O)NC(=O)c1ccc(F)cc1 | 1.06 ± 0.017 |
| CC(C)C[C@H]1C(=O)N2CCC[C@H]2[C@]2(O)O[C@](NC(=O)[C@@H]3C=C4c5cccc6[nH]c(Br)c(c56)C[C@H]4N(C)C3)(C(C)C)C(=O)N12 | 0.947 ± 0.03 |
| CN1[C@@H]2CC[C@H]1C[C@@H](OC(=O)C(CO)c1ccccc1)C2 (stereo not given in full) | 0.974 ± 0.016 |
| CNCC(O)c1ccc(O)cc1 (stereo not given) | 0.85 ± 0.044 |
| CNC(C)(C)Cc1ccccc1 | 0.885 ± 0.077 |
| CCOP(=S)(OCC)Oc1cc(C)nc(C(C)C)n1 | 1.01 ± 0.023 |
| C[C@]12CCC(=O)C(O)=C1CC[C@@H]1[C@@H]2CC[C@]2(C)C(=O)CC[C@@H]12 | 0.995 ± 0.12 |
| NCCCNCCSP(=O)(O)O | 1.03 ± 0.031 |
| O=[N+]([O-])OCC(CO[N+](=O)[O-])O[N+](=O)[O-] | 1.13 ± 0.018 |
| CCCCCCCCC(=O)NCc1ccc(O)c(OC)c1 | 0.96 ± 0.043 |
| Nc1ccc([As](=O)(O)O)cc1 | 1.12 ± 0.032 |
| CC(=O)Nc1cc([As](=O)(O)O)ccc1O | 1.18 ± 0.14 |
| O=c1[nH]c2ccccc2n1C1CCN(CCCC(c2ccc(F)cc2)c2ccc(F)cc2)CC1 | 0.965 ± 0.0036 |
| CC(=O)[O][Hg][c]1ccccc1 | 0.0096 ± 0.00029 |
| C#CCN(C)[C@H](C)Cc1ccccc1 | 1 ± 0.021 |
| C[C@@H]1O[C@@H](O[C@@H]2C=C3CC[C@@H]4[C@H](CC[C@]5(C)[C@@H](c6ccc(=O)oc6)CC[C@]45O)[C@@]3(C)CC2)[C@H](O)[C@H](O)[C@H]1O | 0.967 ± 0.041 |
| CN(C)C(=O)Oc1ccc[n+](C)c1 | 1.14 ± 0.054 |

| SMILES | normalized growth |
| --- | --- |
| CCCC(C)(COC(N)=O)COC(=O)NC(C)C (stereo not given) | 1.03 ± 0.024 |
| COC(C)(C)CCC[C@H](C)C/C=C/C(C)=C/C(=O)OC(C)C | 1.06 ± 0.081 |
| Oc1ccc(Cl)cc1Cc1cc(Cl)ccc1O | 0.895 ± 0.086 |
| CC(O)CN1CCN(CC(=O)[O-])CCN(CC(=O)[O-])CCN(CC(=O)[O-])CC1.[Gd+3] (stereo not given) | 1.05 ± 0.024 |
| N[C@@H]1C[C@H]1c1ccccc1.N[C@H]1C[C@@H]1c1ccccc1 | 1.11 ± 0.043 |
| C#CC(C)(O)CC (stereo not given) | 1.01 ± 0.028 |
| C[N+]1(C)CCCC(OC(=O)C(O)(c2ccccc2)c2ccccc2)C1 (stereo not given) | 1.1 ± 0.011 |
| CCC1(CC)C(=O)NC(=O)NC1=O | 0.917 ± 0.018 |
| O=C1CCO1 | 0.959 ± 0.039 |
| COc1ccc(OC)c(C(O)C(C)N)c1 (stereo not given) | 1.03 ± 0.39 |
| CC([C@H](O)c1ccccc1)N(C)C (stereo not given in full) | 0.939 ± 0.095 |
| CCC(=O)O[C@H]1CC[C@H]2[C@@H]3CCC4=CC(=O)CC[C@]4(C)[C@H]3CC[C@]12C | 1.08 ± 0.021 |
| CCOP(=S)(OCC)Oc1nc(Cl)c(Cl)cc1Cl | 1.33 ± 0.11 |
| C=CCC1(C(C)CCC)C(=O)NC(=S)NC1=O (stereo not given) | 0.897 ± 0.095 |
| CCCCCCCCCCCCCCCC[n+]1ccccc1 | 0.0174 ± 0.0071 |
| CC(=O)NC1CCSC1=O (stereo not given) | 0.848 ± 0.027 |
| CNC(=O)Oc1ccccc1OC(C)C | 0.9696 ± 0.0074 |
| O=P1(N(CCCl)CCCl)NCCCO1 (stereo not given) | 0.987 ± 0.084 |
| c1ccc2c(c1)sc1ccccc12 | 1 ± 0.029 |
| CN1C(=O)CCS(=O)(=O)C1c1ccc(Cl)cc1 (stereo not given) | 1.04 ± 0.019 |
| CCOc1cc(C=O)ccc1O | 0.853 ± 0.023 |
| C=C1C[C@@H]2[C@H](CC[C@]3(C)C(=O)CC[C@@H]23)[C@@]2(C)C=CC(=O)C=C12 | 1.01 ± 0.04 |
| COc1ccc(Cc2nccc3cc(OC)c(OC)cc23)cc1OC | 1.13 ± 0.028 |
| CCC1(CC)C(=O)C=CNC1=O | 1.09 ± 0.12 |
| C[C@]12CC[C@H]3[C@@H](CC[C@@]45O[C@@H]4C(O)=C(C#N)C[C@]35C)[C@@H]1CC[C@@H]2O | 0.822 ± 0.098 |

From the supplement of paper PMC6331611
